Experimental data: article PMC7428214
Results are given in words; binding and its absence hold for the method and conditions named. Binding seen in cells or lysates may run through a third protein. Binding calls can cover weak binding; strength is not graded here.

Target: T1, haspin (Drosophila melanogaster (endogenous in larval salivary glands)) (UniProt P83103)
T1 sequence: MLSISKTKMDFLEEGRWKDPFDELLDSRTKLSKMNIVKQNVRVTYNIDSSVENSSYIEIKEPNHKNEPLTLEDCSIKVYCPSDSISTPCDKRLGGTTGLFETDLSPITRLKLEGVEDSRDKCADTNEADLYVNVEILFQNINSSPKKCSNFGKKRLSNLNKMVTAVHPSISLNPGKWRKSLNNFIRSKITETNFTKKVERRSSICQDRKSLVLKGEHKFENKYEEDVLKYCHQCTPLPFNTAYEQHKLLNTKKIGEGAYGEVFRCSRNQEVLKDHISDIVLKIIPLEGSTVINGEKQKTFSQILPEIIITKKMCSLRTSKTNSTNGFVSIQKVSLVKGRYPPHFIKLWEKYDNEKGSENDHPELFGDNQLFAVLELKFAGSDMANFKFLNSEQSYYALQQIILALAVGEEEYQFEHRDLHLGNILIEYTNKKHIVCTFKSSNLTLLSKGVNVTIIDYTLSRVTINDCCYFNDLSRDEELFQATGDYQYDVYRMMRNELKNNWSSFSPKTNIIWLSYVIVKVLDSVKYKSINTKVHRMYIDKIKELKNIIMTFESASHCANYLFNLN
Assay: co-IP; immunoprecipitation with anti-haspin antibodies from Drosophila larval salivary gland (nuclear) extracts; lysis in 0.5% NP40, 300mM NaCl, 50mM Tris pH8, 5mM EDTA, protease inhibitors; incubation at 4°C; Protein A/G Agarose; Western blot (anti-Flag or anti-myc)

Substance | binding
Pds5-HA-Flag (Drosophila melanogaster) | binds
Rad21-myc (Drosophila melanogaster) | binds
